# Measurements reported in PubChem BioAssay AID2400 (Broad Institute, 2010).
# Some of the results follow. Entries without a call are filed as inconclusive in the source.
# Assay: loss of DOC-induced GRE-beta-galactosidase reporter signal, dose response, Hsp90 inhibitor project, S. cerevisiae, luminescence (AID 2400)
# Settings: 75 min
SMILES,"activity change, negative = inhibition (at 15 µM (top of the series)) [%]","activity change, negative = inhibition (at 16 µM (top of the series)) [%]"
O=C(NNC1=C(C(=O)C(F)(F)F)CCC1)c1ccc(Cl)cc1,-37.2,
C[C@@H]1C[C@@H]2O[C@H]2/C=C\C=C\C(=O)Cc2c(Cl)c(O)cc(O)c2C(=O)O1,,-45.3
O=C(NNC1=C(C(=O)C(F)(F)F)CCC1)c1ccc(Br)cc1,-47.5,
